Results deposited as PubChem BioAssay AID1259306 (Sanger Institute, 2017).
Test: 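Kinases needed for viability and knock-downs that synergise with BYL719, cetuximab or trametinib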 (primary screen). System: human SNU-C5 colorectal cancer cells. Reagent: siRNA pool against human genes. Conditions: DMSO vehicle alone, or one anchor drug: BYL719 at 1 µM, cetuximab at 5 µg/ml or trametinib at 10 nM, given 24 h into the assay. Measured: 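Viability versus non-targeting pool averaged across replicates, given as fraction and robust z-score, and synergy scores for BYL719, cetuximab or trametinib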. Reading the numbers: robust z-score, knock-down alone: higher = more viable cells. Rule for the call: 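Essential if knock-down without drug gives a robust z-score under -3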. Meaning of the calls: active = essential (knock-down alone); inactive = no change alone.
The whole screen tested 794 reagents; below is a part drawn at random. 11 of all reagents (1.4%) count as active. 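Calls reflect knock-down alone; synergy scores play no part, so knock-downs synergising with a drug can be called no change.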 Entries without a mark were called inactive. Further read-outs or replicates are left out here. The record does not give: the amount of reagent, the time to read-out.

target gene	robust z-score, knock-down alone
TGFBR3	0.58
PTGS1	0.571
STAG2	-0.211
NTN4	0.278
MET	0.989
GK2	0.617
DLG3	0.5
CDK11B	-0.104
PEAK1	-0.786
MAGI1	-1.06
SRMS	-0.0874
NEK8	-0.164
PRKAR2B	-0.241
LMBR1	0.622
TRPM7	-1.59
RYK	0.989
NUAK2	-0.536

Continued; the last 2 above are carried over.
target gene	robust z-score, knock-down alone
RYK	0.989
NUAK2	-0.536
ACSL6	0.443
NEK1	0.458
EPHB6	-0.125
CDKN1B	0.989
CDKN2C	-0.364
PIK3C3	0.989
CDKN2B	0.657
NTRK1	-0.855
MPP1	0.989
BUB1	0.826
NR4A2	-1.77
BRDT	0.989
BCR	-2.34
HUS1	0.00804
N4BP2	-0.682
AK2	0.989
MAPK15	0.567
